Source: the supplement of paper PMC10032668
The other results are listed elsewhere or left out. The list holds hits alone, and they repeat only in part.

Protein sequences, listed by entry. Tags and fused reporters are not part of them.
CUL4B, Q13620, UniProt Q13620, whole entry: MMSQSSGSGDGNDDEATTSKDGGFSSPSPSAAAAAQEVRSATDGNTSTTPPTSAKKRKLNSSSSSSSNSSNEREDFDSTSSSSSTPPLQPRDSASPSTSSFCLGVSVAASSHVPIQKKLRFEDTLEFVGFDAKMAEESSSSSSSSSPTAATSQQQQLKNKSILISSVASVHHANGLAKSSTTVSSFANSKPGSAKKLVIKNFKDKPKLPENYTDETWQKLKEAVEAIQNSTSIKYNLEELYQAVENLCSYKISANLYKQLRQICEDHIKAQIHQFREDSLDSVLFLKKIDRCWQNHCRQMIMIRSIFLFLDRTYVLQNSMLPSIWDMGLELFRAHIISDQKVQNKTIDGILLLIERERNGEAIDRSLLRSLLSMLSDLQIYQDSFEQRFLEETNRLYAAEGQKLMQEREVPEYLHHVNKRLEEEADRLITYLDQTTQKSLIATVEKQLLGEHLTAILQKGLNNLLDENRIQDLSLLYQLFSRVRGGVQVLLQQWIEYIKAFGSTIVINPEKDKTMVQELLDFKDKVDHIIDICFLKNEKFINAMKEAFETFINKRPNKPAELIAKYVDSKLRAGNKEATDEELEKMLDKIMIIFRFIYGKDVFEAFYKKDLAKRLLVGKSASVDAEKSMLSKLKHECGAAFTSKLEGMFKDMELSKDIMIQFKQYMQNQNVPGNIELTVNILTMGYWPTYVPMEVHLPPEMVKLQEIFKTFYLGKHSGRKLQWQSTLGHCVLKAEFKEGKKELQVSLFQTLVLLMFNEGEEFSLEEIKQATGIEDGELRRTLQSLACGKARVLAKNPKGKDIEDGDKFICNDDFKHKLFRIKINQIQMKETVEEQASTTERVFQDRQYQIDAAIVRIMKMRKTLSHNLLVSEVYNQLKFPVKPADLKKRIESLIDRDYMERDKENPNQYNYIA
PABPC4, Q13310, UniProt Q13310, whole entry: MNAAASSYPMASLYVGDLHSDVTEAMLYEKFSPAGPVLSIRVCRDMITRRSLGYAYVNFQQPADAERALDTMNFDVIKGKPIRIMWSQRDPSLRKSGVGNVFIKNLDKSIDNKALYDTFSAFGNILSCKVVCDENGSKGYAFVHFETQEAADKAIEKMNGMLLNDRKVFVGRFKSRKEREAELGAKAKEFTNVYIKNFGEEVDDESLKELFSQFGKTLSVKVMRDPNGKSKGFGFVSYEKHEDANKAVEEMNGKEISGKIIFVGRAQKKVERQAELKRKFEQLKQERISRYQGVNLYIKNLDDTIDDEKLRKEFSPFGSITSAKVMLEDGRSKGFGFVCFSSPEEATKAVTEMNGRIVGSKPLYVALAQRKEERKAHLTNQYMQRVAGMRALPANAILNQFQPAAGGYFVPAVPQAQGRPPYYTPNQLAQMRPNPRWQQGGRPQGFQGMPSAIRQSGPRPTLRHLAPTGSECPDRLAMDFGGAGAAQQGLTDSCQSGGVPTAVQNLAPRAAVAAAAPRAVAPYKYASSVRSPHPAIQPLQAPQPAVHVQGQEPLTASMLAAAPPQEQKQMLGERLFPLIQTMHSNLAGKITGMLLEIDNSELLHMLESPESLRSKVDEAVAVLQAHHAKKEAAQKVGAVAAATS
UROC1, Q96N76, UniProt Q96N76, whole entry: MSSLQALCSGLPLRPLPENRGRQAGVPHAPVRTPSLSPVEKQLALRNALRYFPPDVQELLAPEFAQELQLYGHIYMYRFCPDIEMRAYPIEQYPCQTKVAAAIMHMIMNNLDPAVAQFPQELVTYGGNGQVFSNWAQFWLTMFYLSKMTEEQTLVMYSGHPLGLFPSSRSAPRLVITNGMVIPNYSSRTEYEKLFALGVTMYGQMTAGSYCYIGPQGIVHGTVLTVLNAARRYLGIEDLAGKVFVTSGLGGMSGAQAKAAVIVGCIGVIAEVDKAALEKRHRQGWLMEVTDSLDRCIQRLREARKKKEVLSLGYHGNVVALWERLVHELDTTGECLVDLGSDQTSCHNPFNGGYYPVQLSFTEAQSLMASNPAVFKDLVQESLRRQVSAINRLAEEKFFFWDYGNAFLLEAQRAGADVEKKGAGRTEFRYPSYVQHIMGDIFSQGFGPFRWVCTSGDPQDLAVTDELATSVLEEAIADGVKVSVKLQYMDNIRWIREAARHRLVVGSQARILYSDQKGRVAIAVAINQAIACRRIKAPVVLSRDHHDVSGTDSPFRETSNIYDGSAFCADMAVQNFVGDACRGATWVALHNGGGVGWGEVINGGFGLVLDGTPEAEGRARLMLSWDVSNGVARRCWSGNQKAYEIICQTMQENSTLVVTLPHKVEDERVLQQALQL

Legend:
Experiment in all cases: PRISMA enrichment of interactor (LFQ) in peptide spot vs all other peptide spots (log2 fold change); higher = stronger / more specific binding of the interactor to the peptide
[1] = molecular target: ABCE1, P61221
Method: (§1)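 PRISMA: 15-aa overlapping tiles (offset 8 aa) of 60 microproteins, plus SOS1/GLUT1 control peptides, were spot-synthesized on cellulose membranes in triplicate. Membranes were incubated with benzonase-treated HEK293T lysate, and bound proteins were identified by LC-MS/MS with LFQ. Enrichment is the log2 fold change of each protein in one spot versus all other spots. Only interactors passing the significance cutoff are listed.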

[2] = molecular target: ATP5F1D, P30049
Method: as §1

[3] = molecular target: BRAT1, Q6PJG6
Method: as §1

[4] = molecular target: COQ8A, Q8NI60
Method: as §1

[5] = molecular target: CORO1A, P31146
Method: as §1

[6] = molecular target: CUL4B, Q13620
Method: as §1

[7] = molecular target: DDX56, Q9NY93
Method: as §1

[8] = molecular target: DNAJB11, Q9UBS4
Method: as §1

[9] = molecular target: DSP, P15924
Method: as §1

[10] = molecular target: EEFSEC, P57772
Method: as §1

[11] = molecular target: FKBP1A, P62942
Method: as §1

[12] = molecular target: FKBP4, Q02790
Method: as §1

[13] = molecular target: FMR1, Q06787
Method: as §1

[14] = molecular target: HK2, P52789
Method: as §1

[15] = molecular target: HM13, Q8TCT9
Method: as §1

[16] = molecular target: MMTAG2, Q9BU76
Method: as §1

[17] = molecular target: MRPS16, Q9Y3D3
Method: as §1

[18] = molecular target: MSH6, P52701
Method: as §1

[19] = molecular target: MYH10, P35580
Method: as §1

[20] = molecular target: NAMPT, P43490
Method: as §1

[21] = molecular target: NTMT1, Q9BV86
Method: as §1

[22] = molecular target: OTUD4, Q01804
Method: as §1

[23] = molecular target: PABPC4, Q13310
Method: as §1

[24] = molecular target: PNO1, Q9NRX1
Method: as §1

[25] = molecular target: POP4, O95707
Method: as §1

[26] = molecular target: PSMC2, P35998
Method: as §1

[27] = molecular target: RBX1, P62877
Method: as §1

[28] = molecular target: RNF2, Q99496
Method: as §1

[29] = molecular target: SAMHD1, Q9Y3Z3
Method: as §1

[30] = molecular target: SDF4, Q9BRK5
Method: as §1

[31] = molecular target: SEH1L, Q96EE3
Method: as §1

[32] = molecular target: SKP1, P63208
Method: as §1

[33] = molecular target: SURF6, O75683
Method: as §1

[34] = molecular target: UROC1, Q96N76
Method: as §1

[35] = molecular target: WDR12, Q9GZL7
Method: as §1

KVECGDGENTEVQKK [RP11-12K22.1]
PRISMA enrichment of interactor (log2) [1]: 4.1 | PRISMA enrichment of interactor (log2) [2]: 7.36 | PRISMA enrichment of interactor (log2) [3]: 4.73 | PRISMA enrichment of interactor (log2) [4]: 4.9 | PRISMA enrichment of interactor (log2) [5]: 5.61 | PRISMA enrichment of interactor (log2) [6]: 4.6 | PRISMA enrichment of interactor (log2) [7]: 4.56 | PRISMA enrichment of interactor (log2) [8]: 5.48 | PRISMA enrichment of interactor (log2) [9]: 4.76 | PRISMA enrichment of interactor (log2) [10]: 3.91 | PRISMA enrichment of interactor (log2) [11]: 5.98 | PRISMA enrichment of interactor (log2) [12]: 5.82 | PRISMA enrichment of interactor (log2) [13]: 12.5 | PRISMA enrichment of interactor (log2) [14]: 5.29 | PRISMA enrichment of interactor (log2) [15]: 4.64 | PRISMA enrichment of interactor (log2) [16]: 4.32 | PRISMA enrichment of interactor (log2) [17]: 4.88 | PRISMA enrichment of interactor (log2) [18]: 7.25 | PRISMA enrichment of interactor (log2) [19]: 6.28 | PRISMA enrichment of interactor (log2) [20]: 9.36 | PRISMA enrichment of interactor (log2) [21]: 6.27 | PRISMA enrichment of interactor (log2) [22]: 6.8 | PRISMA enrichment of interactor (log2) [23]: 6.6 | PRISMA enrichment of interactor (log2) [24]: 5.18 | PRISMA enrichment of interactor (log2) [25]: 7.25 | PRISMA enrichment of interactor (log2) [26]: 6.43 | PRISMA enrichment of interactor (log2) [27]: 5.58 | PRISMA enrichment of interactor (log2) [28]: 5.93 | PRISMA enrichment of interactor (log2) [29]: 10.2 | PRISMA enrichment of interactor (log2) [30]: 4.66 | PRISMA enrichment of interactor (log2) [31]: 5.09 | PRISMA enrichment of interactor (log2) [32]: 4.26 | PRISMA enrichment of interactor (log2) [33]: 9.09 | PRISMA enrichment of interactor (log2) [34]: 4.21 | PRISMA enrichment of interactor (log2) [35]: 4.59
